Laboratory results: article PMC11124926

Assays:
[1] = target: T1, CIPK31 in pGBT9 (DNA-binding domain fusion), yeast two-hybrid construct (rice) (UniProt Q6X4A2); test: two-hybrid; Match Maker yeast two-hybrid system; CIPK31 in pGBT9 (BD), SLR1 and VOZ2 in pGAD424 (AD); co-transformed into yeast strain Y2HGold
T1 sequence: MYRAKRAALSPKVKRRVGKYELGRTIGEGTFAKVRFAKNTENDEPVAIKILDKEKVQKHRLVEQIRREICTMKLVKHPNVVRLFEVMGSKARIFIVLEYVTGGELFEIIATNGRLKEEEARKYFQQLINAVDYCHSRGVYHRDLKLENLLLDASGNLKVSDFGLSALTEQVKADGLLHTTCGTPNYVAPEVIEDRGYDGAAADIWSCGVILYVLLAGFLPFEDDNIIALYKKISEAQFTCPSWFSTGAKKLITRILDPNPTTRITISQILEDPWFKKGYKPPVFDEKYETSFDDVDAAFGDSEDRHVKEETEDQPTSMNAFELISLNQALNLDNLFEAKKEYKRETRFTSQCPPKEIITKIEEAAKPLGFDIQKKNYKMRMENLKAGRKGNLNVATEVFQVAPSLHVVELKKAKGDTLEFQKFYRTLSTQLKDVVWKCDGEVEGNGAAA

CIPK31-GFP (rice) = target: T2, CIPK31-GFP (rice) (UniProt Q6X4A2); test: co-IP; CIPK31-GFP + VOZ2-Myc coexpressed in tobacco leaves; total protein immunoprecipitated with an anti-GFP antibody; blots with anti-GFP and anti-Myc
T2 sequence: T1 sequence

CIPK31-nYFP (rice) = target: T3, CIPK31-nYFP (rice) (UniProt Q6X4A2); test: split reporter; BiFC in tobacco leaves; vectors pXNGW and pXCGW, Agrobacterium GV3101; YFP reconstruction imaged by confocal microscopy 36-48 h after transformation; H2B-RFP as nuclear marker
T3 sequence: T1 sequence

With “VOZ2 in pGAD424 (activation domain fusion), yeast two-hybrid construct (rice)” the binding [1] was “binds”.
With VOZ2-Myc (rice) the binding (CIPK31-GFP (rice)) was “binds”.
In the case of VOZ2-cCFP (rice), the binding (CIPK31-nYFP (rice)) is reported as “binds”.

No constants are given. Whether binding was seen depends on the method and setting. Binding can be weak; no strength is given. Tags and fused reporters may be left off the sequences shown. For part of these data: In cells and extracts the contact can be indirect.
